# In PubChem BioAssay AID540276 (National Center for Advancing Translational Sciences (NCATS), 2011):
# About 5,400 (1.8%) of roughly 300,000 compounds were called active. Inconclusive means that the source gave no clear call. Such entries were picked first, then a sample of the others. The call rests on the fitted dose curve; tested in HEK293 cells. A potency beside an inconclusive call is a rough fit, not a confirmed value.
# Test: qHTS for inhibitors of binding or entry into cells for Marburg Virus
# Conditions: Marburg virus pseudotyped entry inhibition, cell reporter; series mostly up to 37.8 µM
# Potency means the concentration at half of the fitted maximal effect.
row,SMILES,Potency
1,O=C(Cc1nc2ccccc2s1)c1ccc(O)cc1O,inactive
2,S=C(Nc1ccc(-c2nc3ccccc3[nH]2)cc1)Nc1cccnc1,"inconclusive: 35.5 µM [inhibitor, single point]"
3,Cn1c(/C(C#N)=C/c2cccc(O)c2)nc2ccccc21,"inconclusive: 5.62 µM [activator, single point]"
4,CCOC(=O)c1ccccc1NC(=O)CSc1nc(N)cc(N)n1,inactive
5,CC(C)OC(=O)c1cc(NC(=O)c2nn(C)cc2Br)cc(C(=O)OC(C)C)c1,"inconclusive: 35.5 µM [activator, single point]"
6,COc1cccc(NC(=O)Cn2c(=O)n(Cc3ccc(C(=O)NCc4ccc(C)cc4)cc3)c(=O)c3ccccc32)c1,"inconclusive: 35.5 µM [inhibitor, single point]"
7,CCCOC1(NC(=O)c2ccccc2)C(C)=CC(=O)C=C1C,inactive
8,COc1ccc(CCC(=O)Nc2ccc(N3CCOCC3)cc2)cc1,"inconclusive: 20 µM [activator, single point]"
9,Cc1nn(-c2ccccn2)c2nc(-c3cccs3)cc(C(=O)NCc3ccco3)c12,inactive
10,COc1cccc(OCc2nnc(SCC(=O)NCc3ccco3)n2CCc2ccccc2)c1,"inconclusive: 14.6 µM [inhibitor, partial curve, poor fit]"
11,CCN1CCN(C(=S)c2ccc([N+](=O)[O-])cc2)CC1,"inconclusive: 0.1 µM [activator, full curve, poor fit]"
12,CN(C)C(=C(C#N)C#N)N1CCN(c2ccc(Cl)c(Cl)c2)CC1,"inconclusive: 14.6 µM [inhibitor, single point]"
13,COc1ccc(-n2cc(-c3ccccc3)c3c(N4CC(C)OC(C)C4)ncnc32)cc1 (stereo unspecified),"inconclusive: 35.5 µM [inhibitor, single point]"
14,CN(C)CCNC(=O)c1ccccc1,"inconclusive: 2.06 µM [activator, partial curve, poor fit]"
15,CC12COC3(C(=O)Nc4ccc5ccccc5c4)CC1CCC32C (stereo unspecified),"inconclusive: 35.5 µM [inhibitor, single point]"
16,COc1cccc(NC(=O)Nc2cccn(Cc3ccccc3)c2=O)c1,"inconclusive: 29.1 µM [inhibitor, single point]"
17,O=C(Cc1ccccc1)N/N=C/c1cc(Br)cc(Cl)c1O,"inconclusive: 6.31 µM [inhibitor, partial curve, poor fit]"
18,CCC(C(=O)c1ccccc1)P(=O)(NN)c1ccccc1 (stereo unspecified),"inconclusive: 4.47 µM [activator, single point]"
19,CC(C)c1ccc(N2C=Nc3ccc(C(C)C)cc3C2)cc1,"inconclusive: 22.4 µM [inhibitor, partial curve, poor fit]"
20,CN(C)C1(CNC(=O)C2CCN(S(=O)(=O)c3cccc(C(F)(F)F)c3)CC2)CCCCC1,"inconclusive: 3.16 µM [inhibitor, single point]"
21,Nc1nc(SCc2ccc(Cl)cc2Cl)n[nH]1,"inconclusive: 0.631 µM [activator, single point]"

# 3 compounds from above, sorted by length of the SMILES, low to high:
row,SMILES,Potency
19,CC(C)c1ccc(N2C=Nc3ccc(C(C)C)cc3C2)cc1,"inconclusive: 22.4 µM [inhibitor, partial curve, poor fit]"
4,CCOC(=O)c1ccccc1NC(=O)CSc1nc(N)cc(N)n1,inactive
12,CN(C)C(=C(C#N)C#N)N1CCN(c2ccc(Cl)c(Cl)c2)CC1,"inconclusive: 14.6 µM [inhibitor, single point]"

# Carrying on:

row,SMILES,Potency
1,O=C(NCc1ccc2c(c1)OCO2)c1ccc(N2C(=O)C3CCCCC3C2=O)cc1 (stereo unspecified),"inconclusive: 0.562 µM [inhibitor, single point]"
2,CN1CCN(c2ccc(Cl)cc2NC(=O)CN2C(=O)NC(C)(c3ccccc3)C2=O)CC1 (stereo unspecified),"inconclusive: 35.5 µM [inhibitor, single point]"
3,COc1ccc(CCNC(=O)CSc2nc(C)nc3sccc23)cc1OC,"inconclusive: 7.08 µM [inhibitor, full curve, poor fit]"
4,CCOC(=O)c1cc(-c2ccc(C)cc2)n(CCC(=O)NCCc2ccc(C)cc2)c1C,"inconclusive: 0.316 µM [inhibitor, full curve, poor fit]"
5,CCC(=O)N1CCc2cc(Br)cc(S(=O)(=O)CCC(=O)Nc3ccc(Cl)cc3)c21,inactive
6,CC(=O)N1CCN(C(=O)c2cc(-c3cccc4ccccc34)nc3ccccc23)CC1,"inconclusive: 2.24 µM [inhibitor, partial curve, poor fit]"
7,CCN(CC)CCNC(=O)c1cn(CC)c2ccc(S(=O)(=O)N3CCc4ccccc4C3)cc2c1=O,"inconclusive: 12.6 µM [activator, single point]"
8,CCN(CC)CCN1C(=O)C2C(C(=O)Nc3cccc(C)c3)C3C=CC2(O3)C1C(=O)NC1CCCC(C)C1C (stereo unspecified),"inconclusive: 35.5 µM [inhibitor, partial curve, poor fit]"
9,CCOC(=O)C1CCCN(C(=O)c2cc(Nc3ccc(OC)cc3OC)nc3ccccc23)C1 (stereo unspecified),inactive
10,N#C/C(C(N)=O)=C1/CCc2ccccc2N1,"inconclusive: 10.3 µM [activator, partial curve]"
11,Cc1nc2cc(NC(=O)Nc3ccccc3Cl)ccc2n1C,"inconclusive: 5.62 µM [inhibitor, full curve]"
12,O=C(Nc1nccs1)c1ccc(S(=O)(=O)N2CCOCC2)cc1,"inconclusive: 35.5 µM [inhibitor, single point]"
13,CC(C)CCN=Cc1c(O)n(-c2ccccc2)c(=O)c2ccccc12,inactive
14,CCOC(=O)C(O)(c1ccc(NC(=O)Oc2ccccc2)cc1)C(F)(F)F (stereo unspecified),"inconclusive: 18.4 µM [activator, single point]"
15,CNc1ccccc(C(=O)/C=C/c2ccccc2OC)c1=O,active: 11.2 µM
16,CC1(C)CC(=O)C2=C(C1)OC(N)=C(C#N)C21C(=O)N(Cc2ccccc2Cl)c2ccccc21 (stereo unspecified),"inconclusive: 3.16 µM [inhibitor, single point]"
17,O=C(COc1ccc(F)cc1)Nc1ccc2nc(SCCOc3ccccc3)sc2c1,"inconclusive: 2.82 µM [inhibitor, full curve, poor fit]"
18,CC(NC(=O)CSc1nc2sc3c(c2c(=O)n1-c1ccccc1)CCCC3)c1ccccc1 (stereo unspecified),"inconclusive: 10.3 µM [inhibitor, partial curve, poor fit]"
19,Cc1c(NC(=O)NC2CCCCC2)cccc1[N+](=O)[O-],inactive
20,C[C@@H]1CN(Cc2nc(-c3ccc(Cl)cc3)no2)C[C@H](C)O1,"inconclusive: 17.8 µM [activator, single point]"
